Assay results: PubChem BioAssay AID493014 (National Center for Advancing Translational Sciences (NCATS), 2011)
The other results are listed elsewhere or left out. These are further read-outs of the screen, such as a control signal, another cell line or another target. No call is given for them. Compounds called inactive in the main read-out are mostly missing here. Words in brackets tell the shape of the fitted curve; partial curves, single points and poor fits give uncertain potencies.

Experiment: qHTS Assay to Find Inhibitors of Chronic Active B-Cell Receptor Signaling
Conditions: ABC-DLBCL IkBa-CBG/CBR reporter, luminescence ratio (green luciferase fused to IkBa over red control in TMD8 lymphoma cells), 4 h
Outline: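 Compounds up to 46 uM were incubated four hours with TMD8 cells whose green CBG68 luciferase is fused to IkappaBalpha; red CBR luminescence normalised the signal, and concentration-effect curves were fitted to fusion, red and ratio data.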

[1] = measured here: CBR red luminescence, cell number
[2] = measured here: IkBa-CBG green luminescence

Row | Compound | AC50 [1] | AC50 [2]
1 | NC(=O)CN1CC(c2ccccc2)CC1=O (stereo not drawn) | 0.164 µM [rising, single point] | 
2 | CCc1nc2ccccc2c(=O)n1-c1ccccc1[N+](=O)[O-] | 29.1 µM [rising, single point] | 
3 | Oc1ccc(Cl)cc1Cc1cc(Cl)ccc1O | 29.1 µM [falling, single point] | 
4 | COc1cc(CN2C(=O)NC(=O)C3(Cc4cc(C)ccc4N(C)C3)C2=O)cc(OC)c1 (stereo not drawn) | 3.26 µM [falling, single point] | 
5 | CCOC(=O)[C@@H]1[C@H]2COc3ccc(Br)cc3[C@@H]2N2C(=O)N(c3cccc(C)c3)C(=O)[C@]12C | 8.91 µM [falling, partial curve, poor fit] | 
6 | CN(C)CCc1nc2ccccc2c(=O)n1-c1ccccc1 | 1.84 µM [rising, partial curve] | 
7 | Cc1ccccc1NC(=O)Cn1c(=O)oc2cc(Br)ccc21 | 5.01 µM [falling, partial curve, poor fit] | 
8 | O=C(N/N=C/c1c(O)n(CCc2ccccc2)c(=O)[nH]c1=O)c1ccccc1O | 2.82 µM [falling, full curve] | 
9 | CC(C)=CCSc1nnc([C@@H](N)Cc2c[nH]c3ccccc23)o1 | 11.6 µM [rising, partial curve, poor fit] | 
10 | COc1cccc(NP(=O)(Oc2ccccc2Cl)Oc2ccccc2Cl)c1 | 5.8 µM [falling, partial curve, poor fit] | 
11 | COC(=O)C1=C(c2ccc3ccccc3c2)C[C@@H]2CC[C@H]1N2C(=O)N1CCC(C)CC1 | 32.6 µM [falling, single point] | 
12 | COC(=O)c1cc(CSc2nc3ccc(C)cc3[nH]2)oc1C | 11.2 µM [falling, partial curve, poor fit] | 
13 | COc1ccc(-n2c(/C=C/c3cccc(F)c3)nc3ccccc3c2=O)c(OC)c1 | 0.708 µM [rising, full curve, poor fit] | 
14 | COc1ccc(CN2C(=O)C(C)N(C(=O)c3c(F)cccc3F)c3ccccc32)cc1 (stereo not drawn) | 35.5 µM [falling, single point] | 
15 | COc1ccc(-c2nn(CCC#N)cc2C(=O)Nc2ccc(C(C)=O)cc2)cc1 | 17.8 µM [rising, partial curve, poor fit] | 12.6 µM [falling, single point]
16 | O=c1c2ccccc2nc(-c2ccco2)n1-c1ccccc1 | 3.26 µM [rising, partial curve, poor fit] | 
17 | CN(C)CCC=C1c2ccccc2CCc2ccccc21 | 20.6 µM [falling, single point] | 
18 | COc1cccc(-n2c(/C=C/c3ccc(O)c(O)c3)nc3ccccc3c2=O)c1 | 11.2 µM [falling, partial curve] | 
19 | CC(C)c1ccc(OCC(=O)N2CCN(C)CC2)c(Br)c1 | 29.1 µM [rising, single point] | 
20 | O=c1[nH]c(=S)n(-c2cccc(Cl)c2)c(O)c1C=NCCN1CCNCC1 | 12.6 µM [falling, partial curve] | 
21 | Cn1c(=O)c2[nH]cnc2n(C)c1=O | 2 µM [falling, full curve] | 

Row | Compound | AC50 [1] | AC50 [2]
22 | Cc1ccc(S(=O)(=O)CC(CN2CCCCC2)N2CCCCC2)cc1 (stereo not drawn) | 2.51 µM [falling, full curve, poor fit] | 
23 | CCNc1cc(N2CCN(C)CC2)ccc1[N+](=O)[O-] | 35.5 µM [falling, single point] | 
24 | O=C1CN=C(c2ccccc2Cl)c2cc(Cl)ccc2N1Cc1cccc(Cl)c1 |  | 7.94 µM [rising, partial curve, poor fit]
25 | O=C1CC(=O)N(c2cccc(F)c2)C(=O)N1 | 10 µM [falling, partial curve, poor fit] | 
26 | CC(=O)OC(C)(C)/C=C/C(=O)C(C)(O)C1[C@H](O)C[C@@]2(C)C3CC=C4C(CC[C@@H](O)C4(C)C)[C@]3(CO)C(=O)C[C@]12C (stereo partly drawn) | 11.2 µM [falling, single point] | 
27 | C[C@]12CCC(=O)C=C1CC[C@@H]1[C@@H]2CC[C@]2(C)C(=O)CC[C@@H]12 | 20.6 µM [rising, single point] | 
28 | CN(C)c1nc(C=C(C#N)C#N)c(Cl)n1-c1ccc(F)cc1 | 10 µM [falling, partial curve, poor fit] | 
29 | COC(=O)C1=C(c2ccccc2OCc2ccccc2)C[C@@H]2CC[C@H]1N2C(=O)NCc1ccc(OC)c(OC)c1 | 1.46 µM [falling, full curve, poor fit] | 
30 | CN1CCN(C(=O)COc2ccc3ccccc3c2)CC1 | 11.2 µM [rising, partial curve, poor fit] | 
31 | C/C=C(\C)C(=O)OC1C(C)=C2C(C1OC(=O)CCCCC)C(C)(OC(C)=O)CC(OC(=O)CCC)C1(O)C2OC(=O)C1(C)O (stereo not drawn) | 14.1 µM [falling, single point] | 
32 | CCCCOc1ccc(CCN)cc1Cl | 5.17 µM [falling, partial curve, poor fit] | 
33 | Cc1ccc2c(c1)C(c1ccccc1)=NCC(=O)N2 | 28.2 µM [falling, single point] | 
34 | COc1ccccc1N1C(=O)NC(=O)/C(=C\c2cnn(-c3ccccc3)c2)C1=O | 25.1 µM [rising, partial curve] | 
35 | CC(C)OCCCNC(=O)c1c(N)n(Cc2cccs2)c2nc3ccccc3nc12 | 11.2 µM [falling, partial curve, poor fit] | 
36 | CN(C)CCNC(=O)c1cccn(Cc2cccc(C(F)(F)F)c2)c1=O | 10 µM [falling, partial curve] | 
37 | O=c1oc2ccccc2c(O)c1C(c1ccccn1)c1c(O)c2ccccc2oc1=O | 2 µM [falling, partial curve, poor fit] | 
38 | CC(C)c1nc2cc3ccccc3cc2[nH]1 | 14.1 µM [falling, single point] | 
39 | C=CCNC(=O)c1c(N)n(CCN2CCOCC2)c2nc3ccccc3nc12 | 15.8 µM [falling, single point] | 
40 | O=C(O)CN1C(=O)CN=C(c2ccccn2)c2cc(Cl)ccc21 | 5.62 µM [rising, single point] | 
41 | O=C(N/N=C/c1c(O)n(C2CC2)c(=S)[nH]c1=O)c1ccccc1 | 2.82 µM [falling, full curve] | 
42 | O=C(c1ccccc1)c1ccc(N=Nc2c(O)[nH]c(=O)[nH]c2=O)cc1 | 35.5 µM [rising, single point] | 

Row | Compound | AC50 [1] | AC50 [2]
43 | CCC(C)NC(=O)c1c(N)n(CC2CCCO2)c2nc3ccccc3nc12 (stereo not drawn) | 12.6 µM [falling, partial curve, poor fit] | 
44 | CC[C@H](C)[C@@H](C(=O)N1CCCC1c1nccs1)N(C)C(=O)[C@H](CC(C)C)N(C)C(=O)[C@H](Cc1ccc(OC)cc1)N(C)C(=O)/C=C(\C)OC (stereo partly drawn) | 29.1 µM [rising, partial curve, poor fit] | 
45 | Cc1ccc(-c2nc3ccccc3c(=O)n2-c2ccncc2)cc1 |  | 16.4 µM [rising, partial curve, poor fit]
46 | O=C(c1ccccc1F)c1cn(Cc2ccc(F)cc2)c2ccccc12 | 23.1 µM [rising, partial curve, poor fit] | 
47 | O=c1c2ccccc2nc(-c2ccccc2)n1-c1ccccc1O | 22.4 µM [falling, single point] | 
48 | COc1ccc(CCNC(C)CCc2ccc(OC)cc2)cc1 (stereo not drawn) | 3.26 µM [rising, single point] | 
49 | CC(=O)Nc1ccc(C(=O)C(Cc2ccccc2)N(C)C)cc1 (stereo not drawn) | 17.8 µM [rising, partial curve, poor fit] | 
50 | CCCCn1c(O)c(/C(C)=N/NC(=O)Nc2ccccc2)c(=O)[nH]c1=O | 35.5 µM [falling, single point] | 
51 | Cn1cc(C(=O)OCC(=O)N2CCCCC2)c2ccccc21 | 2.06 µM [falling, full curve] | 
52 | COc1ccc(-c2nc3ccccc3c(=O)o2)cc1 | 3.55 µM [falling, full curve] | 
53 | COC(=O)C1=C(c2c(C)noc2C)C[C@@H]2CC[C@H]1N2C(=O)N1CCc2cc(OC)c(OC)cc2C1 | 2.91 µM [rising, single point] | 
54 | CCCCCCN1CCN(c2ccc(Cl)cc2)CC1 | 31.6 µM [rising, single point] | 
55 | Oc1ccc(Cl)c(Cl)c1Cl | 2.31 µM [rising, partial curve, poor fit] | 
56 | COC(=O)C1=C(c2ccc(-c3ccccc3)c(F)c2)C[C@@H]2CC[C@H]1N2C(=O)NC(C)C | 11.6 µM [falling, partial curve, poor fit] | 
57 | CC(=O)[C@@]1(O)CC[C@H]2[C@@H]3CC=C4C[C@@H](O)CC[C@]4(C)[C@H]3CC[C@@]21C | 0.92 µM [falling, partial curve, poor fit] | 
58 | CCN1Cc2c(/C=C/c3ccccc3)nc3ccc(OC)cc3c2N(c2cccc(Cl)c2)C1 | 22.4 µM [falling, single point] | 
59 | Cc1ccsc1C(=O)C1CCCN(Cc2cccc(OCCO)c2)C1 (stereo not drawn) | 14.1 µM [rising, partial curve] | 
60 | Cn1c(O)c(/C=N/NC(=O)c2ccncc2)c(=O)[nH]c1=S | 12.6 µM [falling, partial curve] | 
61 | Nc1nonc1C(=O)N/N=C/c1ccc([N+](=O)[O-])o1 | 35.5 µM [falling, single point] | 
62 | CCOC(=O)c1[nH]c2ccc(OC)cc2c1C(SCC(=O)O)c1ccc(C(F)(F)F)cc1 (stereo not drawn) | 20 µM [falling, single point] | 

Random excerpt: five compounds from above, in no set order.
Row | Compound | AC50 [1] | AC50 [2]
44 | CC[C@H](C)[C@@H](C(=O)N1CCCC1c1nccs1)N(C)C(=O)[C@H](CC(C)C)N(C)C(=O)[C@H](Cc1ccc(OC)cc1)N(C)C(=O)/C=C(\C)OC (stereo partly drawn) | 29.1 µM [rising, partial curve, poor fit] | 
51 | Cn1cc(C(=O)OCC(=O)N2CCCCC2)c2ccccc21 | 2.06 µM [falling, full curve] | 
50 | CCCCn1c(O)c(/C(C)=N/NC(=O)Nc2ccccc2)c(=O)[nH]c1=O | 35.5 µM [falling, single point] | 
45 | Cc1ccc(-c2nc3ccccc3c(=O)n2-c2ccncc2)cc1 |  | 16.4 µM [rising, partial curve, poor fit]
46 | O=C(c1ccccc1F)c1cn(Cc2ccc(F)cc2)c2ccccc12 | 23.1 µM [rising, partial curve, poor fit] | 
